{"sequences": {"note": "Amino acid sequences for entries named in this document (tags omitted). Residues count along the entry.", "UniProt P24394, residues 26-232": "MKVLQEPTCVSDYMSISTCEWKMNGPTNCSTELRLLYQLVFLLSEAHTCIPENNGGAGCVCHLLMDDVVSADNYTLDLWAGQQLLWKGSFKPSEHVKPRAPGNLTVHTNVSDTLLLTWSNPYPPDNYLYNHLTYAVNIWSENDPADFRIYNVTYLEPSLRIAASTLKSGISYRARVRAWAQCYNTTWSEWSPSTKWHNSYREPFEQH"}, "source": "patent US20260139033A1", "about": "(PRANA THERAPIES, published 2026)", "biological_target": "soluble IL-4Rα (human) (UniProt P24394)", "experiment": "condition: 500 nM (top IL-4R analyte concentration per paragraph 167; not printed on the sheet); SPR (Biacore 3000, CM5 chip, 25 C): complex captured via protein A, IL-4R as analyte", "note": "No constants are given. Whether binding was seen depends on the method and setting."}
{"binder": "Candidate-5 (TRAP-2) (other, Monospecific TSLP-TRAP complex on palivizumab (human IgG4 S228P, YTE)) heavy chain with C-terminal TSLP TRAP 2 (palivizumab-YTE heavy chain, first linker, TSLP-TRAP): QVTLRESGPALVKPTQTLTLTCTFSGFSLSTSGMSVGWIRQPPGKALEWLADIWWDDKKDYNPSLKSRLTISKDTSANQVVLKVTNMDPADTATYYCARSMITNWYFDVWGAGTTVTVSSASTKGPSVFPLAPCSRSTSESTAALGCLVKDYFPEPVTVSWNSGALTSGVHTFPAVLQSSGLYSLSSVVTVPSSSLGTKTYTCNVDHKPSNTKVDKRVESKYGPPCPPCPAPEFLGGPSVFLFPPKPKDTLYITREPEVTCVVVDVSQEDPEVQFNWYVDGVEVHNAKTKPREEQFNSTYRVVSVLTVLHQDWLNGKEYKCKVSNKGLPSSIEKTISKAKGQPREPQVYTLPPSQEEMTKNQVSLTCLVKGFYPSDIAVEWESNGQPENNYKTTPPVLDSDGSFFLYSRLTVDKSRWQEGNVFSCSVMHEALHNHYTQKSLSLSLGGGGGSGGGGSGGGGSGGGGSESGYAQNGDLEDAELDDYSFSCYSQLEVNGSQHSLTCAFEDPDVNITNLEFEICGALVEVKCLNFRKLQEIYFIETKKFLLIGKSNICVKVGEKSLTCKKIDLTTIVKPEAPFDLSVVYREGANDFVVTFNTSHLQKKYVKVLMHDVAYRQEKDENKWTHVNLSSTKLTLLQRKLQPAAMYEIKVRSIPDHYFKGFWSEWSPSYYFRTPEINNSSGEMDGGSGGSGGSGGSGGSGGSGGSGGSGGSGGSGGSGGSGGSGGSGGSGGSGGSGGSGGSGGSGAAEGVQIQIIYFNLETVQVTWNASKYSRTNLTFHYRFNGDEAYDQCTNYLLQEGHTSGCLLDAEQRDDILYFSIRNGTHPVFTASRWMVYYLKPSSPKHVRFSWHQDAVTVTCSDLSYGDLLYEVQYRSPFDTEWQSKQENTCNVTIEGLDAEKCYSFWVRVKAMEDVYGPDTYPSDWSEVTCWQRGEIRDACAETPTPPKPKLSK light chain: DIQMTQSPSTLSASVGDRVTITCKCQLSVGYMHWYQQKPGKAPKLLIYDTSKLASGVPSRFSGSGSGTAFTLTISSLQPDDFATYYCFQGSGYPFTFGGGTKLEIKRTVAAPSVFIFPPSDEQLKSGTASVVCLLNNFYPREAKVQWKVDNALQSGNSQESVTEQDSKDSTYSLSSTLTLSKADYEKHKVYACEVTHQGLSSPVTKSFNRGEC", "values": [{"measurement": "binding", "result": "no binding"}]}
